Results from PMC6451786.
Results are given in words; binding and its absence hold for the method and conditions named. In cells and extracts the contact can be indirect. Some binding calls cover weakened binding; strength is not graded here.

The chains behind the UniProt entries cited, without tags or fusion partners. Residues count along the entry.
UniProt P27958, residues 1973-2420: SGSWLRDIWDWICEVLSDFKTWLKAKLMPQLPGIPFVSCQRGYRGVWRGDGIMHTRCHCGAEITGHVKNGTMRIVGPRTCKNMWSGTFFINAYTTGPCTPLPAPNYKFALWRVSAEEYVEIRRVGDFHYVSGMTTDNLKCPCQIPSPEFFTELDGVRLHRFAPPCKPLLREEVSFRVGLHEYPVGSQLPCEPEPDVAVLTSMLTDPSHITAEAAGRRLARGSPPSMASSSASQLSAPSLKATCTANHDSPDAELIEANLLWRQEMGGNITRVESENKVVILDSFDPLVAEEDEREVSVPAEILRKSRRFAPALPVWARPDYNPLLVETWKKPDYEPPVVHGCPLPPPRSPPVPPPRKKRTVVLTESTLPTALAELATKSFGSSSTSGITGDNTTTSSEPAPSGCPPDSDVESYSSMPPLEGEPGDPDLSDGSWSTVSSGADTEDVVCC

Target: T1, endogenous perilipin 5 (Plin5) of mouse primary hepatocytes (mouse (endogenous in primary hepatocytes)) (UniProt Q8BVZ1)
T1 sequence: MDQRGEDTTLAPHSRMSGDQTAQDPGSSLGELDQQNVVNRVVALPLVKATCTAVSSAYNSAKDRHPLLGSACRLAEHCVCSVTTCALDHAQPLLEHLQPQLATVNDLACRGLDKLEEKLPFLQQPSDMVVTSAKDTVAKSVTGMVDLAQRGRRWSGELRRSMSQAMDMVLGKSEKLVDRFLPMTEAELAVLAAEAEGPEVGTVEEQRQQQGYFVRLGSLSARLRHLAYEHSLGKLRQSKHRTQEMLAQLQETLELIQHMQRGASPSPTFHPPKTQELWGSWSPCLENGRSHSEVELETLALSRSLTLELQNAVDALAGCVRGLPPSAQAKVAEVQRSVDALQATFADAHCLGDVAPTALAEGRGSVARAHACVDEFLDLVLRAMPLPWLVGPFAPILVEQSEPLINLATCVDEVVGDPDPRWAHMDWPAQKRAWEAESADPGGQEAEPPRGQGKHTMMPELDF
Assay: co-IP; wild-type and Plin5-null mouse primary hepatocytes infected with NS5A adenovirus; endogenous Plin5 immunoprecipitated with anti-Plin5 antibody; NS5A detected by immunoblot with anti-HA

Substance: HA-tagged HCV non-structural protein 5A (NS5A), expressed from adenovirus (Ad-NS5A) in mouse primary hepatocytes (from UniProt P27958 1973-2420)
- binding: binds
